In the supplement of paper PMC4862054:
Small differences around the control level are noise.

Assays:
Assay in all cases: normalised response (% of control), CellTox Green; higher = less cell death (100 = DMSO, 0 = benzethonium chloride kill control)
Conditions in all cases: incubation time: 72 h
BT-474 = test system: BT-474
Description: (§1)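 DSRT, 72 h incubation, CellTox Green / CellTiter-Glo readout. Signal is normalised to DMSO and benzethonium chloride controls. Value is the normalised response at dose 2.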

BT-549 = test system: BT-549
Description: as §1

CAL-120 = test system: CAL-120
Description: as §1

CAL-148 = test system: CAL-148
Description: as §1

CAL-51 = test system: CAL-51
Description: as §1

CAL-85-1 = test system: CAL-85-1
Description: as §1

DU-4475 = test system: DU-4475
Description: as §1

HCC1143 = test system: HCC1143
Description: as §1

HCC1599 = test system: HCC1599
Description: as §1

HCC1937 = test system: HCC1937
Description: as §1

HDQ-P1 = test system: HDQ-P1
Description: as §1

Hs578T = test system: Hs578T
Description: as §1

MCF-10A = test system: MCF-10A
Description: as §1

MDA-MB-231 = test system: MDA-MB-231
Description: as §1

MDA-MB-436 = test system: MDA-MB-436
Description: as §1

MDA-MB-453 = test system: MDA-MB-453
Description: as §1

MDA-MB-468 = test system: MDA-MB-468
Description: as §1

MFM-223 = test system: MFM-223
Description: as §1

SMILES | normalised response (BT-474) [%] | normalised response (BT-549) [%] | normalised response (CAL-120) [%] | normalised response (CAL-148) [%] | normalised response (CAL-51) [%] | normalised response (CAL-85-1) [%] | normalised response (DU-4475) [%] | normalised response (HCC1143) [%] | normalised response (HCC1599) [%] | normalised response (HCC1937) [%] | normalised response (HDQ-P1) [%] | normalised response (Hs578T) [%] | normalised response (MCF-10A) [%] | normalised response (MDA-MB-231) [%] | normalised response (MDA-MB-436) [%] | normalised response (MDA-MB-453) [%] | normalised response (MDA-MB-468) [%] | normalised response (MFM-223) [%]
COc1ncc(-c2ccc3nccc(-c4ccnnc4)c3c2)cc1NS(=O)(=O)c1ccc(F)cc1F (1 nM) | 103 | 99.2 | 102 | 111 | 114 | 98.1 | 110 | 110 | 118 | 113 | 121 | 115 | 112 | 103 | 108 | 101 | 60.6 | 104
Nc1nccc(-c2c(-c3ccc(F)cc3)ncn2C2CCCCC2)n1 (10 nM) | 103 | 93.9 | 99.3 | 98.5 | 116 | 104 | 104 | 101 | 110 | 120 | 97.4 | 92.1 | 100 | 109 | 69.4 | 75.8 | 131 | 93.5
O=C1CN2Cc3c(ccc(Cl)c3Cl)N=C2N1 [Anagrelide] (10 nM) | 95 | 103 | 103 | 104 | 102 | 104 | 95.4 | 79.7 | 96.9 | 102 | 105 | 121 | 84.9 | 90.1 | 89.2 | 100 | 53.7 | 91.3
O=C(/C=C/c1cccc(S(=O)(=O)Nc2ccccc2)c1)NO [Belinostat] (10 nM) | 92.2 | 111 | 99.6 | 98.3 | 70.4 | 91.8 | 107 |  | 103 | 75.3 | 117 | 94.7 | 111 | 81 | 55.3 | 105 | 57.9 | 101
N.N.[Cl][Pt][Cl] [Cisplatin] (1 nM) | 105 | 112 | 102 | 107 | 93.8 | 107 | 103 | 84.7 | 103 | 76 | 117 | 129 | 107 | 84.8 | 93.1 | 98.2 | 102 | 102
Nc1nc(Cl)nc2c1ncn2[C@@H]1O[C@H](CO)[C@@H](O)[C@@H]1F [Clofarabine] (10 nM) | 105 | 112 | 97.8 | 111 | 69 | 111 | 100 | 103 | 108 | 119 | 68.2 | 124 | 90.4 | 132 | 95.6 | 101 | 122 | 106
COc1nc(N)nc2c1ncn2[C@@H]1O[C@H](CO)[C@@H](O)[C@@H]1O [Nelarabine] (10 nM) | 100 | 79.5 | 98.5 | 97 | 64.3 | 91.8 | 92.5 | 73.3 | 88.7 | 61.6 | 98.2 | 101 |  | 92.3 |  | 95.5 | 81 | 99.2
CCC(C)(C)C(=O)O[C@H]1C[C@@H](C)C=C2C=C[C@H](C)[C@H](CC[C@@H]3C[C@@H](O)CC(=O)O3)[C@H]21 [Simvastatin] (10 nM) |  | 94.1 | 99 | 96.1 | 115 | 97.3 | 98 | 110 | 93.8 | 97.6 | 102 | 130 | 74.8 |  | 103 | 96.5 | 68.5 | 81.2
COc1cc2c(NC3CCN(C(C)C)CC3)nc(C3CCCCC3)nc2cc1OCCCN1CCCC1 [UNC0638] (10 nM) | 99.3 | 98.5 | 97.7 |  | 93.7 | 101 | 97 | 61.2 | 95.4 | 92.4 | 121 | 111 | 90.5 | 91 | 100 |  | 97 | 89.8
